## Library screening results

The chains behind the UniProt entries cited, without tags or fusion partners.
UniProt E9BF75, entry or part of it: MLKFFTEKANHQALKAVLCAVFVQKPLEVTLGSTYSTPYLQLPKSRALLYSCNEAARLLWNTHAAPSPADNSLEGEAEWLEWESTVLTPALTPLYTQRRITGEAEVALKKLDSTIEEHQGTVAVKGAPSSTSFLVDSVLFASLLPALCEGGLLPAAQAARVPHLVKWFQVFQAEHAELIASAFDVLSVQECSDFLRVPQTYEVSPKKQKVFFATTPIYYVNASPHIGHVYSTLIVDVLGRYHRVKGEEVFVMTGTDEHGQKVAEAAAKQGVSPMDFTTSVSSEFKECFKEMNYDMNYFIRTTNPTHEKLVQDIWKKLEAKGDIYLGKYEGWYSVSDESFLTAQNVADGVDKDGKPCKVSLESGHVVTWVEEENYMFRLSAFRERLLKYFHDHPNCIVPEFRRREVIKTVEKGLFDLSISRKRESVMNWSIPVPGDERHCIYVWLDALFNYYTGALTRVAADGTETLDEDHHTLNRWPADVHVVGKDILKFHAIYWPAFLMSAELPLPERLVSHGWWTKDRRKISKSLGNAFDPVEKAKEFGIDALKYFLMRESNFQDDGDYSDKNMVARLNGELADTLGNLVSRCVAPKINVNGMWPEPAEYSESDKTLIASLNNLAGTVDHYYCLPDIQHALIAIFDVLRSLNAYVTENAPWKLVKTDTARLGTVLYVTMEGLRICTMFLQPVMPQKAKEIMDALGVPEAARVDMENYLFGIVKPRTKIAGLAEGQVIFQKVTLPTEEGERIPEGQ

From ChEMBL document CHEMBL3988442, “University of Dundee, Small-Polar-MMV Screening Library” (2021).

Results are percentages, as filed. The controls that fix the scale are not given in the record; negative values are as filed. This is an unselected part of the compounds tested.

Mtb heat-shock: 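Assay on Mycobacterium tuberculosis, filed only as a heat shock assay from Cornell; the read-out is not stated. The concentration is filed as 10 mM, unlikely as a test dose, so the dose is not known. The record gives no direction; compounds that gave an IC50 in retests scored well above the rest, so higher reads as stronger inhibition. Size under these conditions: about 69,000 compounds, about 930 of them at 50% or above in at least one test.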
LdMetRS: 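Primary screen of methionyl-tRNA synthetase; the read-out is not stated. Target: Methionyl-tRNA synthetase (putative), Leishmania donovani (UniProt E9BF75). The test concentration is not given. Values are per cent inhibition. About 68,000 compounds were tested under these conditions; 0.035% (about 24) showed 50% or more at least once.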
Mtb growth Cornell: 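Whole-cell assay for inhibitors of Mycobacterium tuberculosis growth, labelled Cornell in the record; the read-out is not stated. The concentration is filed as 10 mM, unlikely as a test dose, so the dose is not known. The record gives no direction; compounds strong in two other growth screens of this library score well above the rest, so higher reads as stronger inhibition. Size under these conditions: about 53,000 compounds, about 900 of them at 50% or above in at least one test.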

structure: NC(=O)Cn1ccc(O)c(Cc2ccc(Cl)cc2Cl)c1=O
Mtb heat-shock: 11.51
LdMetRS: 21.02
Mtb growth Cornell: 23.94

structure: Cc1nnc([C@@H]2CCO[C@@H]3CCN(C(=O)Cc4ccsc4)C[C@@H]32)o1
LdMetRS: 20.44

structure: CN(C)CCn1c(=O)oc2ccc(NC(=O)CSc3ccccc3)cc21
Mtb heat-shock: -21.88
LdMetRS: 4.244
Mtb growth Cornell: 68.34

structure: CC(NC(=O)N1CCC1)c1ccc(S(C)(=O)=O)cc1 (stereo not drawn)
Mtb heat-shock: 12.05
LdMetRS: 13.73

structure: [H][C@@]12CCN(Cc3ccc(C)o3)C[C@]1([H])[C@@H](CN(C)C)OC2
Mtb heat-shock: 6.365
Mtb growth Cornell: 1.915

structure: Cn1cccc1C(=O)N1CC[C@@H]2[C@@H]1CC(=O)N2CC1CCOCC1
LdMetRS: 13.49

structure: O=C(COCC1CC1)N1CCCC(n2ccnc2)C1 (stereo not drawn)
Mtb heat-shock: -5.503
LdMetRS: 2.778

structure: CCOCC(=O)N1C[C@@H]2COC[C@H](c3nc(C)no3)[C@@H]2C1
LdMetRS: 3.81

structure: CCC(C)Oc1cc(C(=O)Nc2nccs2)ccn1 (stereo not drawn)
Mtb heat-shock: 9.944
LdMetRS: 18.77
Mtb growth Cornell: 39.46

structure: Cc1noc(C)c1-c1cccc(C2CCN(CC(=O)N(C)C)CC2)n1
Mtb heat-shock: -5.01
LdMetRS: 17.45
Mtb growth Cornell: 5.177

structure: CS(=O)(=O)N1CCCC1c1cccc(Cc2ccccc2F)n1 (stereo not drawn)
Mtb heat-shock: -7.758
LdMetRS: 17.71
Mtb growth Cornell: 16.6

structure: [H][C@@]12CNCC[C@]1(O)CCN(c1cncc(C(=O)N3CCCC3)n1)C2
Mtb heat-shock: 5.944
Mtb growth Cornell: -22

structure: Cc1nnc(SCCC(=O)N(C)Cc2ccc(F)cc2F)[nH]1
Mtb heat-shock: -3.957
LdMetRS: 2.941

structure: Cc1nc(C(C)C)sc1C(=O)NCC(C)(C)N1CCOCC1
Mtb heat-shock: 9.686
LdMetRS: 3.553

structure: Cc1cc(NC(=O)Cc2ccc3c(c2)OCO3)n(C)n1
Mtb heat-shock: 2.737
LdMetRS: 11.83
Mtb growth Cornell: 3.42

structure: CCN(C)S(=O)(=O)NCC1(c2ccccc2Br)CC1
Mtb heat-shock: -10.8
LdMetRS: 15.12
Mtb growth Cornell: 20.89

structure: Cc1ncncc1C(=O)N1CCCN(Cc2ncc(Cl)n2C)CC1
Mtb heat-shock: 5.087
LdMetRS: 3.495
Mtb growth Cornell: 5.209

structure: O=S(=O)(N1CCC(n2cccc2)CC1)N1CCCC1c1ccco1 (stereo not drawn)
Mtb heat-shock: -14.93
LdMetRS: 14.37
Mtb growth Cornell: 34.62

structure: CSc1ccc(C2CC(=O)Nc3c2c(=O)[nH]n3C(C)C)cc1 (stereo not drawn)
Mtb heat-shock: 9.907
LdMetRS: 18.04
Mtb growth Cornell: -17.57

structure: Cc1ccc(S(=O)(=O)NCCOc2ccc3nnc(C)n3n2)s1
Mtb heat-shock: 12.62
LdMetRS: 15.49
Mtb growth Cornell: -3.796

structure: O=C(c1ccc(C2CCCO2)s1)N1CCOCC1 (stereo not drawn)
Mtb heat-shock: 35.85
LdMetRS: 0.7117

structure: O=C(c1cnn(-c2ccccc2)n1)N1CCCC(n2cccn2)C1 (stereo not drawn)
Mtb heat-shock: -13.02
LdMetRS: 15.9
Mtb growth Cornell: 13.74

structure: O=C(Cc1ccccn1)N1CCc2ncnc(NC3CCC3)c2CC1.O=C(O)C(F)(F)F
Mtb heat-shock: -11.28
Mtb growth Cornell: 17.8

structure: [H][C@@]12CN(Cc3ccc(C(F)(F)F)cc3)C[C@]1([H])OCC(=O)N2
Mtb heat-shock: -24.77
Mtb growth Cornell: 4.465

structure: CNCC(=O)N1CCCC(c2ccnc(Nc3cnccn3)n2)C1 (stereo not drawn)
Mtb heat-shock: -9.747
LdMetRS: 9.896
Mtb growth Cornell: -8.516

structure: CCN1CCCC(O)(CNCc2ccc3c(c2)OCO3)C1 (stereo not drawn)
Mtb heat-shock: -19.86
LdMetRS: 15.79

structure: Cc1cc(CNc2cccc(Cl)c2C)no1
Mtb heat-shock: -1.476
LdMetRS: 15.71

structure: Cc1cn2c(n1)CCC(NC(=O)c1[nH]ncc1Br)C2 (stereo not drawn)
Mtb heat-shock: -20.09
LdMetRS: 14.74
Mtb growth Cornell: -5.555

structure: Cc1nn(C)c(C)c1C1CCCN1CCCC#N (stereo not drawn)
Mtb heat-shock: -9.241
LdMetRS: 1.049
Mtb growth Cornell: -3.092

structure: O=C(c1ccc(=O)[nH]c1)N1CCCC1c1nc2cc(F)ccc2[nH]1 (stereo not drawn)
Mtb heat-shock: -15.84
LdMetRS: 12.18
Mtb growth Cornell: 2.078

Once more, the final 3:

structure,Mtb heat-shock,LdMetRS,Mtb growth Cornell
Cc1cn2c(n1)CCC(NC(=O)c1[nH]ncc1Br)C2 (stereo not drawn),-20.09,14.74,-5.555
Cc1nn(C)c(C)c1C1CCCN1CCCC#N (stereo not drawn),-9.241,1.049,-3.092
O=C(c1ccc(=O)[nH]c1)N1CCCC1c1nc2cc(F)ccc2[nH]1 (stereo not drawn),-15.84,12.18,2.078